Laboratory results from the supplement of paper PMC12823440, “Inhibitors supercharge kinase turnover through native proteolytic circuits” (Nature, 2025).
Counter-ions that a name gives are not always drawn. Some of the results follow. The calls rarely recur for the same compound in another form.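 Kinases, fused to nanoluciferase, were expressed in K562 cells; luminescence was measured every 4 h from 2 to 18 h as percent of control (DMSO = 100%, positive control = 0%). A time point is decreased if signal falls significantly (2 sigma). Hits were called by the authors by a rule that is not shown; the count of time points alone does not decide it.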

The chains behind the UniProt entries cited, without tags or fusion partners. Where a name states a change or a piece, a line headed by the entry shows the natural chain unless it says otherwise.
UniProt O15530: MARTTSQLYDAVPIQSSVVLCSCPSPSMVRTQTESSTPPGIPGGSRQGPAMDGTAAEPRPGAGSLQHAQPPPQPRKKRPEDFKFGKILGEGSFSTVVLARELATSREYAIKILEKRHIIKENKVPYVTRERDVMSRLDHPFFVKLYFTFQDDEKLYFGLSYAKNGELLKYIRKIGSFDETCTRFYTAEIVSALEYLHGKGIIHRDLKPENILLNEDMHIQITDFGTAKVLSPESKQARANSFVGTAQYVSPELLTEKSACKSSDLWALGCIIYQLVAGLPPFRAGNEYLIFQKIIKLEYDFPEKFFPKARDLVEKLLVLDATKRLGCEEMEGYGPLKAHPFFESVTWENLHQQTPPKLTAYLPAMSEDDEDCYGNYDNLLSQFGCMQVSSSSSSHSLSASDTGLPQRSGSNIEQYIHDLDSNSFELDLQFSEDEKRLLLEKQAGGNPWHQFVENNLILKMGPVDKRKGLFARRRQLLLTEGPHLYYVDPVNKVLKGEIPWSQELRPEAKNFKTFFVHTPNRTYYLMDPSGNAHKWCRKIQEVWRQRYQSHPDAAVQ

What follows are molecules tested against PDPK1 (UniProt O15530) (assay: kinase-Nluc reporter destabilization hit call (1 = scored as downregulated) (binary); higher = compound decreases kinase abundance). Conditions: K562; 2-18 h.

kinase-Nluc reporter destabilization hit call, inactive:
COc1ccc2nc3ccc(OC)cc3c(SCCCN)c2c1 (10 µM) 0, NC(=O)c1sc2c([N+](=O)[O-])cc(C(F)(F)F)cc2[n+]1[O-] [Cyclapolin 9] (10 µM) 0, CS(=O)(=O)c1cccc(CNc2nc(Nc3ccc4c(c3)CCC(=O)N4)ncc2C(F)(F)F)c1 (10 µM) 0, CS(=O)(=O)c1ccc([C@@H](CC2CCCC2)C(=O)Nc2nccs2)cc1 (10 µM) 0, C=CC(=O)Nc1cc(Nc2nccc(-c3cn(C)c4ccccc34)n2)c(OCC(F)(F)F)nc1N(C)CCNC [AST5902  (trimesylate)] (2.5 µM) 0, CO/N=C1/C(c2c(O)[nH]c3cc(Cl)c(Cl)cc23)=Nc2ccccc21 (10 µM) 0, CC(ONC(=O)c1cc(C(F)(F)F)cc(C(F)(F)F)c1)C(=O)Nc1ccc(Cl)cc1 (stereo not drawn) (2.5 µM) 0, Cc1ccc(C2CC(=O)NC(SCC(=O)Nc3nccs3)=C2C#N)cc1 (stereo not drawn) [Necrostatin-34] (10 µM) 0, O=CN1CCN(c2ccc(C=C3C(=O)Nc4ccccc43)cc2)CC1 (10 µM) 0, CCCS(=O)(=O)N[C@H]1C[C@@H](N(C)c2ncnc3[nH]ccc23)C1 [Abrocitinib] (10 µM) 0, NC(=O)c1cnc(N[C@@H]2CCCC[C@@H]2N)nc1Nc1cccc(-n2nccn2)c1 (2.5 µM) 0, CS[C@@]1(C(=O)Nc2ccc3[nH]nc(-c4ccc(OC(C)C)nc4)c3c2)CCN(CC(=O)N2CC=C(c3ccc(-c4ncn(C)n4)cc3)CC2)C1 (2.5 µM) 0, Fc1ccc(Cl)cc1-c1nc(Nc2ccncc2)c2nccnc2n1 (10 µM) 0, O=C(Nc1ccccc1C(=O)NC1CCCCNC1=O)c1cc2ccccc2s1 (stereo not drawn) (10 µM) 0, O=C(O)c1c[nH]c2cc(Cl)c(-c3ccc(C4(O)CCC4)cc3)cc12 (10 µM) 0, CN(C[C@@H]1COCCO1)S(=O)(=O)Nc1ccc2ccc3ncc(-c4cnn(C)c4)cc3c(=O)c2c1 (2.5 µM) 0, NC(=O)c1ccccc1Nc1ccnc(Nc2cccc(O)c2)n1 (10 µM) 0, Cc1ccc2c(NS(=O)(=O)c3ccccc3Cl)cccc2c1Oc1ncccc1-c1ccnc(N[C@H]2CCCNC2)n1 (2.5 µM) 0, O=C(Nc1ccc(Cl)cc1)C1CN(C(=O)c2cccc(-c3ccco3)c2)CC(F)(F)C1 (stereo not drawn) (2.5 µM) 0, COc1ccc(CN2CCC(c3ccc4nc(C(=O)N5CCN(Cc6ccc(C(F)(F)F)cc6)CC5)[nH]c4c3)CC2)cn1 (2.5 µM) 0, CC(C)=CCC[C@](C)(O[C@@H]1O[C@H](CO[C@@H]2O[C@H](CO)[C@@H](O)[C@H](O)[C@H]2O)[C@@H](O)[C@H](O)[C@H]1O)[C@H]1CC[C@]2(C)[C@@H]1[C@H](O)C[C@@H]1[C@@]3(C)CC[C@H](O[C@@H]4O[C@H](CO)[C@@H](O)[C@H](O)[C@H]4O[C@@H]4O[C@H](CO)[C@@H](O)[C@H](O)[C@H]4O)C(C)(C)[C@@H]3CC[C@]12C [Ginsenoside Rb1] (10 µM) 0, COc1cc2ncnc(Nc3cc(Br)c(O)c(Br)c3)c2cc1OC (2.5 µM) 0, CO[C@]1(C(=O)N[C@@H](C)c2ccc(-n3cc(F)cn3)nc2)CC[C@H](c2nc(C)cc(Nc3cc(C)[nH]n3)n2)CC1 [Pralsetinib] (10 µM) 0, CCc1cc(Nc2nccc(-c3c(-c4ccc(OC)c(C(=O)Nc5c(F)cccc5F)c4)nc4ccccn34)n2)c(OC)cc1N1CCC(N2CCN(S(C)(=O)=O)CC2)CC1 (2.5 µM) 0, Cc1nc2c(NCc3cccc(S(C)(=O)=O)c3)nccn2c1-c1ccc(O)c(F)c1 (10 µM) 0, CNC(=O)CN1CCC(Oc2cc3c(Nc4cccc(Cl)c4F)ncnc3cc2OC)CC1 [Sapitinib] (10 µM) 0, COc1ccc(Br)c(C=O)c1O [6-Bromo-2-hydroxy-3-methoxybenzaldehyde] (10 µM) 0, N#C/C(=C/c1ccc(O)c(O)c1)C(=O)N1CCc2ccccc21 [Tyrphostin AG 528] (10 µM) 0, C[C@H](Nc1cc2c(-c3ccc4c(c3)OCO4)noc2cn1)c1ccccc1 (10 µM) 0, CC1(C)CN(C(=O)c2ccc(-c3cccc4nc(NC(=O)C5CC5)nn34)cc2)C1 [Solcitinib] (10 µM) 0, Cc1ccc(NC(=O)N2CCN(c3nc(N)nc4sc(-c5cccnc5)nc34)CC2)cc1 [PI4KIII beta inhibitor 3] (10 µM) 0, COc1ccc(Cl)cc1N(CC(=O)Nc1ccc2c(c1)OCO2)S(=O)(=O)c1ccccc1 (2.5 µM) 0, CN1CCN(c2ccc(-n3cc(-c4ccncc4OCC4CCNCC4)cn3)cc2)CC1 [MELK-8a (hydrochloride)] (10 µM) 0, CC1=CC(=O)C(C(C)C)=C/C1=N/OC(=O)c1ccccc1C [Poloxin] (2.5 µM) 0, CCOC(=O)c1c(C)[nH]c(C=C2C(=O)Nc3ccccc32)c1C (10 µM) 0, O=C(NC[C@H](O)CO)c1ccncc1Nc1ccc(I)cc1F [Pimasertib] (10 µM) 0, O=[N+]([O-])c1ccc(-c2nc(-c3ccc(F)cc3)c(-c3ccncc3)[nH]2)cc1 (10 µM) 0, COc1ccc(CCNCc2ccc(OCc3ccc(Cl)nc3)c(OC)c2)cc1OC [SBE13 (Hydrochloride)] (10 µM) 0
